Reference: paper PMC11658451, “The human Dicer helicase domain is capable of ATP hydrolysis and single-stranded nucleic acid binding” (BMC Biology, 2024)
Weaker means in comparison with the reference protein, sequence or condition of that experiment. Protein sequences can lack the tags named with them. The exact form of at least one protein or probe is not confirmed. For some of these results: At least one verdict was read from the data and is not stated in words by the source.

Legend:
[1] = molecular target: T1, HEL (hDicer helicase domain) (Homo sapiens) (UniProt Q9UPY3); assay: BLI; conditions: signal too low for Kd, recombinant protein, residues 1-624, protein details: N-terminal His6 (pMCSG7), label: 5' 32P (EMSA), none (BLI)
T1 sequence (looked up): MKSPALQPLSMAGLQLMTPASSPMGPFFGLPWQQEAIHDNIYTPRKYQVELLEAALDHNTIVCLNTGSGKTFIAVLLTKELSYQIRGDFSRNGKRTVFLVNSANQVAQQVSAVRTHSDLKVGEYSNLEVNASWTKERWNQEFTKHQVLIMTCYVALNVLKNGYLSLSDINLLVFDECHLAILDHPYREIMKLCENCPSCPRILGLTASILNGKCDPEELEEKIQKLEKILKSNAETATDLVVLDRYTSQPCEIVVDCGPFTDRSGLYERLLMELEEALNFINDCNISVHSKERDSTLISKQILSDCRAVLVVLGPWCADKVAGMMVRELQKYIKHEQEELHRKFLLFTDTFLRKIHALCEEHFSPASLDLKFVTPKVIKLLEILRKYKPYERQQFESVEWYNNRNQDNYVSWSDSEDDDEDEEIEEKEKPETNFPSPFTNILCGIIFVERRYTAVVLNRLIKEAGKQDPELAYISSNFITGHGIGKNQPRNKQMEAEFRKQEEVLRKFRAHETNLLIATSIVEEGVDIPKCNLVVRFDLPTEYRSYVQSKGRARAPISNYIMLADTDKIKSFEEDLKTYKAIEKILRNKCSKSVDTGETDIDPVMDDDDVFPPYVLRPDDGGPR

[2] = molecular target: T1, HEL (hDicer helicase domain) (Homo sapiens); assay: EMSA; conditions: 50 mM Tris-HCl pH 7.5, 150 mM NaCl, EMSA 15 min at room temperature (also 4 and 37 C), recombinant protein, residues 1-624, protein details: N-terminal His6 (pMCSG7)
[3] = distinct but low abundant complex, 5% native PAA gel in 1x TBE at 4 C, label: 5' 32P (EMSA), none (BLI)
[4] = 4 C, 5% native PAA gel in 1x TBE at 4 C, label: 5' 32P (EMSA), none (BLI)
[5] = poorly detected, 5% native PAA gel in 1x TBE at 4 C, label: 5' 32P (EMSA), none (BLI)
[6] = smeared bands, no Kd, 5% native PAA gel in 1x TBE at 4 C, label: 5' 32P (EMSA)

## GUGCAUUGUAGUUGCAUUGCAUGUUCUGGUCA [R32]
[1]
  binding result: binds more weakly
[2]; 1 mM ATP, ATP did not support binding, 5% native PAA gel in 1x TBE at …, label: 5' 32P (EMSA), none (BLI)
  binding result: binds more weakly
[2]; [3]
  binding result: binds more weakly

## GUGCAUUGUAGUUGCAUUGCAUGUUCUGGUGGUACCCAUGCAAUGUUUCCACAGUGCAUC [pre-mir-33a]
[2]; smeared bands, no Kd, 5% native PAA gel in 1x TBE at 4 C, label: 5' 32P
  binding result: binds more weakly

## GGGAGAAUCAUAAGUAGCGCAGUGAGUCGUUGUGCUGCCCAUGUUAACAGUUAGCC [R56]
[2]; [4]
  binding result: binds more weakly
[2]; [5]
  binding result: binds more weakly

## GGGAGAAUCAUAAGUAGCCUCCCCCCAUGUUAACAGUUAGCC [R42]
[2]; 1 mM ADP, not improved, 5% native PAA gel in 1x TBE at 4 C, label: 5' 32P (EMSA), none (BLI)
  binding result: binds more weakly
[2]; 1 mM AMP-PNP, not improved, 5% native PAA gel in 1x TBE at 4 C, label: 5' 32P (EMSA), none (BLI)
  binding result: binds more weakly
[2]; 1 mM ATP, not improved, 5% native PAA gel in 1x TBE at 4 C, label: 5' 32P (EMSA), none (BLI)
  binding result: binds more weakly
[2]; [4]
  binding result: binds more weakly
[2]; [5]
  binding result: binds more weakly

## GTGCATTGTAGTTGCATTGCATGTTCTGGTCA [D32]
[1]; single-stranded DNA
  binding result: binds more weakly
[2]; 1 mM ATP, ATP did not support binding, 5% native PAA gel in 1x TBE at …, label: 5' 32P (EMSA), none (BLI), single-stranded DNA
  binding result: binds

## TCGAAGTATTCCGCGTACGTG [D21]
[1]; single-stranded DNA
  binding result: binds more weakly
[2]; 5% native PAA gel in 1x TBE at 4 C, label: 5' 32P (EMSA), none (BLI), single-stranded DNA
  binding result: binds more weakly

## UAGCAGCACGUAAAUAUUGGCGUUAAGAUUCUAAAAUUAUCUCCAGUAUUAACUGUGCUGCUGAA [pre-mir-16-1]
[2]; [6]
  binding result: binds more weakly

## AGCUUAUCAGACUGAUGUUGACUGUUGAAUCUCAUGGCAACACCAGUCGAUGGGCUGU [pre-mir-21]
[2]; [6]
  binding result: binds more weakly

## UCGAAGUAUUCCGCGUACGUG [R21]
[1]
  binding result: binds more weakly
[2]; [3]
  binding result: binds more weakly
